Results published in PubChem BioAssay AID488835 (Broad Institute, 2010).
Among all 1,400 compounds or so, about 140 (10%) were called active.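 The calls were made as follows: active = Half-maximal inhibitory dose from the fit at or below ten times the top valid tested dose; inconclusive = Invalid fit, or flat curve showing 30 to 70% inhibition; inactive = the rest.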 The entries are a selection whose mix differs from that of the whole data set. Results with a measured potency or affinity are listed apart.

Amino acid sequences for entries named in this document (tags omitted). Residues count along the entry.
UniProt Q9H3R0, 1-420 limits assumed: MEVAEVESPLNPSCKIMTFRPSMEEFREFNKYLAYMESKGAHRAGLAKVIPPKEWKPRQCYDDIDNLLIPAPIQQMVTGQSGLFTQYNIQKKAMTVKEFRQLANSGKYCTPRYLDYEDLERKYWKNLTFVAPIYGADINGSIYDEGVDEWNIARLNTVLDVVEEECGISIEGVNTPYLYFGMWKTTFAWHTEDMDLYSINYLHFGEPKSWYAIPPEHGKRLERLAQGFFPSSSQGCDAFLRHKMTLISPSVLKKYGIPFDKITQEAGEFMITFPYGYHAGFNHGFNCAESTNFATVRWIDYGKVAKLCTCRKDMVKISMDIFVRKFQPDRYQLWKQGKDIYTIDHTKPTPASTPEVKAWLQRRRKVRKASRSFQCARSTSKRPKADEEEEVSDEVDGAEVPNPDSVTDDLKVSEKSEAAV

target: Lysine-specific demethylase 4C (Homo sapiens) (UniProt Q9H3R0); experiment: inhibition of JMJD2C H3K9me3 demethylation – biochemical, DELFIA europium, cherry-picked samples, dose response (AID 488835); details: GST-JMJD2C(1-420); at 6 µM (top of the series) unless noted;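 also: signal is the H3K9me2 demethylation product detected by a dimethyl-specific antibody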

Activity change, negative = inhibition, inactive:
COC(=O)[C@]1(C)N[C@H](CN(C)C(=O)Nc2ccc(C)cc2)[C@@H]2C(=O)N(Cc3ccccc3)C(=O)[C@@H]21 3.23%
Cc1ccc(NC(=O)c2ccc(OC(=O)CCN3C(=O)c4ccccc4C3=O)cc2)cc1 -0.588%
Cn1c(SCC(=O)Nc2cc(S(=O)(=O)N3CCOCC3)ccc2N2CCOCC2)nnc1-c1ccncc1 -0.937%
Cc1cc(N(C)C)cc(C)[n+]1[O-] 9.45%
CCOC(=O)N1CCc2c(sc3nc4n(c(=O)c23)N=C(C)CS4)C1 -0.154%
C#CCOCCOCCOCCNc1nc(N2CCN(C(=O)[C@H](CCCCN)n3cc([C@@H](N)[C@H](C)CC)nn3)CC2)nc(N2CCN(C(=O)[C@H](CCC(=O)O)n3cc([C@@H](N)CCSC)nn3)CC2)n1 3.89%
C[C@@H]1CN([C@H](C)CO)C(=O)c2cccc(NC(=O)c3ccncc3)c2O[C@@H]1CN(C)Cc1ccc(C(=O)O)cc1 -5.5%
CC(=O)Nc1n[nH]c(-c2ccc(C)cc2)c1C 6.4%
CC(=O)N1CCN(c2ccc(NC(=O)c3ccc4ccccc4c3)cc2)CC1 3.73%
CCS(=O)(=O)N1CCCC(C(=O)NCCCN2CCCC2=O)C1 (configuration not stated) 6.63%
C=CCn1c(N2CCCCCC2)nc2c1c(=O)[nH]c(=O)n2C -2.76%
Cc1occc1-c1nnc(SCC(=O)Nc2ccccc2)n1C(C)c1ccccc1 (configuration not stated) 4.21% [at 1.6 µM]
C[C@@]12C(=O)Nc3ccc(Br)cc3C(=O)N1[C@H]1c3ccccc3OC[C@@H]1[C@@H]2c1ccccc1 0.725%
Cc1cc(C)n2nc(C(=O)N3CCCC(Nc4ccc(F)c(F)c4)C3)cc2n1 (configuration not stated) 3.27%
CC(C)(C)c1ccc(C(=O)NNC(=O)c2cccc(Br)c2)cc1 3.94%
COC(=O)NNC(=S)Nc1cc(OC)ccc1OC 4.86%
CCC(CC)NC(=O)CSc1nnc(-c2ccc(OC)cc2)n1C(C)C 3.58%
O=c1n(Cc2ccccc2)c2cc(Cl)cnc2n1Cc1ccccc1 -12.2%
C[C@@]12C(=O)Nc3cc(F)c(F)cc3C(=O)N1[C@H]1c3cc(Cl)ccc3OC[C@@H]1[C@@H]2c1ccccc1 3.39%
C[C@H](CO)N1C[C@H](C)[C@@H](CN(C)Cc2ccncc2)Oc2c(NC(=O)Cc3ccccc3)cccc2C1=O -3.32%
CC#CCOC(=O)c1c(C)nc2sc3c(c2c1N)CCC(O)C3 (configuration not stated) 8.15%
CC[C@@]1(C(=O)OC)N[C@H](CN(C)C(=O)Nc2ccc(C)cc2)[C@@H]2C(=O)N(C)C(=O)[C@@H]21 -3.45%
Cn1c(=O)c2c(nc(NC3CCCCC3)n2Cc2ccccc2)n(C)c1=O 1.97%
C=CCOc1ccc(C(=O)NC2CCCCC2)cc1 0.127%
O=C(c1cccc(-n2cccc2)c1)N1CCN(S(=O)(=O)c2c(F)cccc2F)CC1 -0.611%
CCOC(=O)C1CCN(S(=O)(=O)c2cccc(-c3cn4cc(Cl)ccc4n3)c2)CC1 4.89%
C[C@@H]1CC[C@]2(C(=O)O[C@@H]3O[C@H](CO)[C@@H](O)[C@H](O)[C@H]3O)CC[C@]3(C)C(=CCC4[C@@]5(C)C[C@@H](O)[C@H](O)[C@@](C)(C(=O)O[C@@H]6[C@H](O)C[C@@]7(C)C(CC[C@]8(C)C7CC=C7[C@H]9[C@](C(=O)O[C@@H]%10O[C@H](CO)[C@@H](O)[C@H](O)[C@H]%10O)(CC[C@@H](C)[C@@]9(C)O)CC[C@]78C)[C@@]6(CO)C(=O)O)C5CC[C@]43C)[C@@H]2[C@]1(C)O (some centres not stated) 8%
Cc1ccc(C(=O)NCCCCNC(=O)c2ccc(C)o2)o1 3.59%
Cc1cccc2c1-c1sc(C(=O)Nc3cccc([N+](=O)[O-])c3C)cc1CO2 13.5%
Cn1c2ccccc2c2c(C(=O)N3CCN(c4ccccn4)CC3)cn(C3CCCC3)c(=O)c21 4.51%
Cn1cccc1-c1nc2ccc(NC(=O)c3cccs3)cc2[nH]1 -5.68%
CN(C(=O)c1ccccn1)c1nnc(-c2ccccn2)s1 4.97%
COC(=O)CNS(=O)(=O)c1ccc(C)cc1 2.24%
O=C(/C=C/c1cc([N+](=O)[O-])ccc1OC(F)F)Nc1ccc(OC(F)F)cc1 3.39%
COC(=O)C1=C(C(=O)OC)SC(=C2C(=S)C(C)(C)N(C(=O)C(C)C)c3ccccc32)S1 5.45%
CCOc1ccc(-c2nc(CSCC(=O)NC3CCCc4ccccc43)c(C)o2)cc1 (configuration not stated) -1.1%
S=c1[nH]nc(COc2ccccc2)n1/N=C/c1ccccn1 -9.09%
COCCCn1c(SCC(=O)NCc2ccco2)nc2sc3c(c2c1=O)CCC3 -1.17%
CN(c1cccc(Cl)c1)S(=O)(=O)c1cccc(C(=O)Nc2ccc3c(c2)CCC3)c1 0.113%
C#CCOCCOCCOCCNc1nc(N2CCN(C(=O)[C@H](CCC(=O)O)n3cc([C@@H](N)CCCCN)nn3)CC2)nc(N2CCN(C(=O)[C@H](CCC(=O)O)n3cc([C@@H](N)CCCCN)nn3)CC2)n1 -1.73%
O=c1ccc(=O)n2n1CC(O)C2 4.28%
Cc1cccc(NC(=O)C2CCN(S(=O)(=O)c3cccc4nsnc34)CC2)n1 1.5%
Cc1cccc(NS(=O)(=O)c2cccc3nsnc23)c1 1.48%
COc1ccc(/C(C)=N/Nc2nccnc2Cl)cc1 -1.3%
Cc1cc(=O)[nH]c(CN2CCOCC2)n1 8.68%
COc1ccc(OC)c(/C=C2\SC(=S)N(Cc3cccnc3)C2=O)c1 -4.57%
CN(C(=O)COc1ccccc1)c1nnc(-c2ccncc2)s1 9.89%
C[C@H](CO)N1C[C@H](C)[C@@H](CN(C)S(=O)(=O)c2ccccc2)Oc2c(NC(=O)CCC(F)(F)F)cccc2C1=O -2.36%
Cn1c(=O)n(C)c2cc(S(=O)(=O)N3CCOCC3)ccc21 13.3%
Cc1cnn(C(=O)c2ccccc2Br)c1 5.52%
CCOC(=O)Cc1csc(NC(=O)COc2cccc(C)c2)n1 6.84%
COc1ccc(CCN2C(=O)CC(NNC(=O)c3ccccc3Br)C2=O)cc1 (configuration not stated) 7.12%
CNC[C@H]1Oc2c(NS(=O)(=O)c3cccs3)cccc2C(=O)N([C@H](C)CO)C[C@@H]1C -0.911%
CC(OC(=O)c1ccc([N+](=O)[O-])s1)C(=O)Nc1ncc(Cl)cc1Cl (configuration not stated) -0.534%
Cc1ccccc1CN1C(=O)C(O)(CC(=O)c2ccncc2)c2ccccc21 (configuration not stated) 9.16%
CS(=O)(=O)NC1c2cccc3cccc(c23)C1Sc1nncn1/N=C/c1ccco1 (configuration not stated) 4.42%
COc1cccc(C(c2nnnn2CCc2ccccc2)N2CCN(c3ccccc3)CC2)c1OC (configuration not stated) 6.18%
CC1CCN(C(=O)CSc2nnc(CNC(=O)c3c(F)cccc3F)o2)CC1 6.12%
CCn1c(=O)c(C(=O)CN2c3ccccc3CC2C)c(N)n(Cc2ccccc2)c1=O (configuration not stated) -1.24%
Cn1c2ccccc2c(=O)c2ccc(NCCc3cccs3)cc21 -2.85%
CC(=O)Nc1ccc2c(c1)C(C)(C)C(C)N2C (configuration not stated) 2.1%
Cc1ccc(CNC(=O)Cc2ccc(-c3ccccc3)cc2)cc1 -0.123%
Fc1ccccc1OCCCCn1cncn1 9.01%
N#CC(C(=O)NCCc1ccccc1)c1nc2ccccc2nc1N1CCOCC1 (configuration not stated) 2.32%
CCOC(=O)c1sc(Nc2nc(OC)cc(OC)n2)nc1C 1.39%
CCOc1ccccc1Nc1ncnc2ccccc12 6.06%
CCOc1ccc2nc(NC(=O)CS(=O)(=O)c3ccc(C)cc3)sc2c1 4.69%
COc1cc(Cl)c(NC2=CC(=O)C(=O)c3ccccc32)c(OC)c1 -0.945%
Nc1c(C(=O)OCC2CCCO2)c2nc3ccccc3nc2n1C1CCCC1 (configuration not stated) -6.76%
CCOC(=O)c1cc2n(n1)C(C(F)(F)F)CC(C)N2 (configuration not stated) -3.7%
COC(=O)CCC(=O)N1CCOCCOCCN(C(=O)CCC(=O)OC)CCOCCOCC1 5.88%
O=C(NCc1nnc(SCC(=O)N2CCCC2)o1)c1c(F)cccc1Cl 7.98%
O=C(Cn1c(NCCCO)nc2ccccc21)c1ccc(Br)cc1 3.75%
CCN(C[C@H]1N[C@@](C)(C(=O)OC)[C@H]2C(=O)N(C)C(=O)[C@@H]12)C(=O)Nc1ccccc1 6.53%
CCc1ncc(C)[nH]1 -5.59%
COC(=O)c1ccc(-c2sc3nc(N4CCOCC4)c4c(c3c2N)CC(C)(C)OC4)o1 5.56% [at 1.6 µM]
COc1ccccc1CCNC(=O)c1ccc(C)o1 8.21%
Cc1ccc(CNC(=O)[C@@H](NC(=O)Cc2ccccc2)C(C)C)cc1 0.0758%
Cn1nc(N)nc1N1CCN(c2ccc(F)cc2)CC1 0.933%
Cc1noc(C)c1NC(=O)N(C)C[C@H]1Oc2ccc(NS(=O)(=O)c3ccccc3)cc2C(=O)N([C@H](C)CO)C[C@@H]1C 3.26%
Cc1ccc(Nc2nnc(SCC(=O)N(C)C3CCS(=O)(=O)C3)s2)cc1 (configuration not stated) 2.6%
CC(C)C[C@@H]1CN=C(N)N1C[C@@H]1CCCN1C[C@H](C)N1C[C@@H](Cc2ccccc2)N(CCc2ccc(Cl)c(Cl)c2)C1=N 8.72%

Five entries picked at random from those above, as already listed:
Activity change, negative = inhibition, inactive:
CCOC(=O)Cc1csc(NC(=O)COc2cccc(C)c2)n1 6.84%
Cn1c(=O)c2c(nc(NC3CCCCC3)n2Cc2ccccc2)n(C)c1=O 1.97%
Fc1ccccc1OCCCCn1cncn1 9.01%
C#CCOCCOCCOCCNc1nc(N2CCN(C(=O)[C@H](CCC(=O)O)n3cc([C@@H](N)CCCCN)nn3)CC2)nc(N2CCN(C(=O)[C@H](CCC(=O)O)n3cc([C@@H](N)CCCCN)nn3)CC2)n1 -1.73%
CC(OC(=O)c1ccc([N+](=O)[O-])s1)C(=O)Nc1ncc(Cl)cc1Cl (configuration not stated) -0.534%
